The values that follow come from PubChem BioAssay AID1487 (National Center for Advancing Translational Sciences (NCATS), 2009).

This assay in a line: qHTS Assay for Modulators of Lamin A Splicing. The settings on record: HeLa LMNA splicing GFP/RFP minigene ratio, 48 h. In short, it runs like this: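 S3 HeLa stable clones carrying a lamin A-EGFP splicing minigene plus DsRed2 were seeded at 600 cells/well in Opti-MEM with 2% FBS, pin-dosed and incubated 48 h at 37°C. Acumen cytometry (488 nm) gave the GFP/RFP total-intensity ratio.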
(Quantitative high-throughput screening tests each substance at several concentrations.)

[1] abbreviates: measured here: GFP splicing reporter channel.
The mark [2] stands for this setting: measured here: RFP viability control channel.

The list shows a part of the results. These are further read-outs of the screen, such as a control signal, another cell line or another target. No call is given for them. Most of these compounds were active or inconclusive in the main read-out, so they are no random draw. The note in brackets gives the kind of curve behind each potency; many fits are weak.

The AC50 is the concentration giving half of the maximal activity seen.

As to `Cc1ccc(C(NC(=O)c2ccccc2)C(Cl)Cl)cc1` (centres undefined), the AC50 was 17.8 µM [rising, single point] under setting [1] and 15.8 µM [rising, partial curve] under setting [2].

For the molecule `CCCCN(CCCC)S(=O)(=O)c1ccc2oc(C(=O)N3CCOCC3)c(C)c2c1`, under setting [2], the AC50 is 35.5 µM [rising, single point].

With `O=C1C(c2ccc(F)cc2)N(CC2COc3ccccc3O2)C(=O)CN1C1CCCCC1` (centres undefined), the AC50 under setting [1] was 3.98 µM [rising, full curve, poor fit].

As to `COc1ccc(NC2=CC(c3ccc(OC)c(OC)c3)N(c3ccc(OC)cc3)C2=O)cc1` (centres undefined), the AC50 under setting [2] was 0.0282 µM [falling, full curve, poor fit].

Take `N=C1SC(c2ccccc2)C(=O)N1c1ncc(Cc2ccccc2Cl)s1` (centres undefined): under setting [2], the AC50 is 25.1 µM [rising, single point].

Take `Cc1ccc(C(=O)N2CC3(C(C)C)CN(C(=O)c4ccc(C)cc4)CC(C(C)C)(C2)C3=O)cc1`: the AC50 under setting [2] is 0.0708 µM [falling, full curve, poor fit].

As to `Cc1ccc(S(=O)(=O)CC(=O)c2ccc(C(C)(C)C)cc2)cc1`, the AC50 under setting [2] was 17.8 µM [rising, single point].

With `CC(=O)Nc1ccc(Nc2cc(C)nc3c(-c4ccccc4)cnn23)cc1`, under setting [2], the half-maximal activity concentration (AC50) was 0.0126 µM [rising, full curve, poor fit].

For the molecule `Cn1cc(C(=O)N/N=C/c2cccs2)c2ccccc21`, under setting [2], the AC50 is 5.01 µM [rising, partial curve].

Consider `COc1ccc(NC(=O)CC2C(=O)N(c3ccc(F)cc3)C(=S)N2NC(=O)c2ccccc2)cc1` (centres undefined), for which the AC50 under setting [2] was 12.6 µM [rising, single point].

Turning to `CCN(CC)S(=O)(=O)c1cccc(NC(=O)c2cc3ccccc3o2)c1`, the AC50 under setting [1] was 12.6 µM [rising, partial curve] and the AC50 under setting [2] was 22.4 µM [rising, partial curve].

Take `CC(Oc1ccc2oc3ccccc3c2c1)C(=O)NC12CC3CC(CC(C3)C1)C2` (centres undefined): the AC50 is 31.6 µM [rising, single point] under setting [1] and 35.5 µM [rising, single point] under setting [2].

In the case of `Cc1ccc(-c2noc(CCC(=O)Nc3ccc4c(c3)OCO4)n2)cc1`, the AC50 under setting [1] was 22.4 µM [rising, single point].

For `COc1ccc(-c2c(C(F)(F)F)oc3cc(OCC(=O)Nc4ccccc4C(F)(F)F)ccc3c2=O)cc1OC`, the AC50 under setting [2] is 5.01 µM [falling, partial curve].

In the case of `COc1cccc(-c2nn(-c3ccccc3)cc2C(=O)Nc2nccs2)c1`, the AC50 under setting [2] is 15.8 µM [rising, single point].

As for `COc1cc(C)nc(Nc2nc(C)c(C(C)=O)s2)n1`, under setting [2], the AC50 was 0.398 µM [rising, full curve, poor fit].
